# Laboratory results from PubChem BioAssay AID1259354 (Paczesny and Yang Labs, IUPUI and University of Michigan, 2018).
# By UniProt entry, the sequences of proteins in these tests, tags left out. Where a name states a change or a piece, a line headed by the entry shows the natural chain unless it says otherwise.
# UniProt Q01638: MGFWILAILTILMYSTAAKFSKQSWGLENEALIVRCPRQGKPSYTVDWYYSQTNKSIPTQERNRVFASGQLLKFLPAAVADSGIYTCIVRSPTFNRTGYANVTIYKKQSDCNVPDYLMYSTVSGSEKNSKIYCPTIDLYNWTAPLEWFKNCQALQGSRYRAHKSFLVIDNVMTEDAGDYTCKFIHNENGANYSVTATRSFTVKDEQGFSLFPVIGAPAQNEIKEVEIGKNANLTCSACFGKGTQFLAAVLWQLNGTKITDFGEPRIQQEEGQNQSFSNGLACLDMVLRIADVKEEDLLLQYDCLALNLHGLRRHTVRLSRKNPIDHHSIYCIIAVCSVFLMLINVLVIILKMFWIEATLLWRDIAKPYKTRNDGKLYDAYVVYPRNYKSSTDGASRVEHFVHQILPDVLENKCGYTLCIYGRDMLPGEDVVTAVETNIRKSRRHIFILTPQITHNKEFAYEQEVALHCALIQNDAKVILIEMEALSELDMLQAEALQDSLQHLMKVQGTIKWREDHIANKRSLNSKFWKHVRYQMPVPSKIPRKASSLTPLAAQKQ
# Values joined by “and” are separate entries in the source; they are usually repeats but may differ in a detail not shown here. Identical values can stand only once. Screen size: about 78,000 compounds; about 1,800 (2.3%) were called active. The inconclusive results got no clear call from the source; some entries with a clear call stand among them for comparison. Rule as the data show it: active = inhibition above about 30%; inconclusive = mostly about 10% to 28%; inactive = weaker than that.
# Molecular target: Interleukin-1 receptor-like 1 (Homo sapiens) (UniProt Q01638)
# Experiment: blocks human ST2 binding to IL-33, primary screen, biochemical, AlphaLISA (AID 1259354)
# Conditions: AlphaLISA ST2-Fc/biotin-IL-33 interaction, 1 h; at 17 µM, stronger effect = higher value
row,Compound,inhibition
1,CN1C[C@@H](NS(=O)(=O)Cc2ccccc2)C[C@H]1c1nc(-c2ccc3c(c2)OCO3)no1,inconclusive: 10%
2,COc1ccc(S(=O)(=O)N2CCN(c3nc(C)cc(N4CCCCC4)n3)CC2)cc1C,inconclusive: 11%
3,CCOC(=O)c1sc(NC(=O)c2ccoc2C)c(C(=O)OCC)c1C,inconclusive: 18%
4,COc1cccc(CN2CCN(Cc3nc(-c4ccc(Cl)cc4)no3)CC2CCO)c1 (configuration not stated),inactive
5,O=C(NC1CCCCC1)N[C@H]1[C@H](O)[C@@H](N2CCN(c3ccccc3)CC2)[C@@H]2OC[C@H]1O2,inconclusive: 13%
6,CN1CC2(CCCN(C(=O)CCc3nc4ccccc4s3)CC2)OC1=O (configuration not stated),inconclusive: 17%
7,CN(C)Cc1ccc(C(=O)NC2CCCN(C3CCCCCC3)C2)o1 (configuration not stated),inactive
8,O=c1oc(COc2ccc(Cl)cc2)nc2ccc(Br)cc12,inconclusive: 11%
9,Cc1ccc2c(c1)CN(CC(=O)NCCc1nc3ccccc3n1C)CC(c1ccsc1)O2 (configuration not stated),inactive
10,O=C(c1ccco1)N1C[C@@H]2C[C@H](C1)c1ccc(-c3ccccc3CN3CCOCC3)c(=O)n1C2,inactive
11,CC1=NN(c2cccc(C(=O)O)c2)C(=O)/C1=C\c1ccc(-c2cc([N+](=O)[O-])ccc2O)o1,inconclusive: 14%
12,O=C(O)CC1(CC(=O)N[C@H]2CO[C@H]3[C@@H]2OC[C@@H]3n2nnnc2Oc2ccccc2)CCCC1,inconclusive: 25%
13,c1ccc(COC2CCCN(Cc3cnc(-c4cccs4)nc3)C2)nc1 (configuration not stated),inconclusive: 11%
14,Cc1ccc(Cn2c(CNC(=O)c3cccs3)nc3cccnc32)cc1,inconclusive: 16%
15,Cc1ccc(N2CCCS2(=O)=O)cc1NC(=O)c1ccc(Br)cc1,inconclusive: 14%
16,Cc1ccc(-c2noc([C@@H]3Cc4nc[nH]c4CN3C(=O)Nc3ccccc3)n2)cc1,inconclusive: 21%
17,Cc1cc(NC(=O)CSc2nc3c([nH]c4ccccc43)c(=O)n2-c2ccc(F)cc2)no1,inconclusive: 19%
18,Cc1ccc2oc(=O)c(C=C(O)c3ccc(Cl)cc3)nc2c1,inconclusive: 16%
19,COc1ccc(NC(=O)O[C@@H]2CO[C@H]3[C@@H]2OC[C@@H]3NC(=O)COc2ccccc2)cc1,inconclusive: 19%
20,N#Cc1ccccc1CSc1nnc2c(n1)[nH]c1ccccc12,inconclusive: 13%
21,COc1ccccc1C(C)N(C)C(=O)c1cc(C)c(C)c(S(N)(=O)=O)c1 (configuration not stated),inactive
22,CCCN1CCC(Cc2noc(-c3ncccc3C)n2)CC1,inactive
23,COc1cccc(C=Nc2ccc(N=Cc3cccc(OC)c3OC)cc2)c1OC,inactive

row,Compound,inhibition
1,COc1ccc(C2C(C(=O)Nc3ccc(C)cc3C)=C(C)Nc3nnnn32)cc1OC (configuration not stated),inactive
2,O=C(CC1CCCC1)N1CCC2(CCCN(Cc3ccc(F)c(F)c3)C2)C1 (configuration not stated),inactive
3,O=C(C(Cc1ccccc1)N1C(=O)c2ccccc2C1=O)N1CCOCC1 (configuration not stated),inconclusive: 20%
4,CCOc1cc(/C=C2/C=C(c3ccc(C)cc3)OC2=O)ccc1O,active: 31%
5,CCn1ncnc1CN1CC[C@@H](c2ccc3c(c2)OCO3)[C@H](O)C1,inconclusive: 13%
6,CSC1=NC2(CCCC2)Cc2ccccc21,inconclusive: 14%
7,CN(C)c1ccc(/C=C2\N=C(c3ccc(Br)cc3)OC2=O)cc1,inconclusive: 12%
8,Fc1cnc(Nc2ccccn2)nc1N1CCOCC1,inactive
9,COc1ccc(C)cc1NC(=O)C(C)C,inactive
10,Cc1cc(N2CCOCC2)nc(N2CCN(S(C)(=O)=O)CC2)n1,inconclusive: 12%
11,C/C=C/c1ccc(OCCOc2ccccc2C(C)=O)c(OC)c1,inconclusive: 13%
12,CC1CCCN1Cc1cccc(C(=O)Nc2ccc3ncccc3c2)c1 (configuration not stated),inconclusive: 18%
13,O=C(O)CCCC(=O)N1CCCc2ccccc21,inactive
14,C=C(C)Cn1c(CCNC(=O)CCC)nc2ccccc21,inactive
15,Cn1c(=O)cc2c3c(c(N4CCCCC4)ccc31)C(=O)c1ccccc1-2,active: 44%
16,CS(=O)(=O)N1CCN(C(=O)COc2ccc(Cl)cc2)CC1,inactive
17,CC1=C(C)CS(=Nc2cccc([N+](=O)[O-])c2)N(S(=O)(=O)c2ccccc2)C1 (configuration not stated),inconclusive: 23%
18,COc1ccc(CCNS(=O)(=O)c2ccc(F)cc2)cc1,inactive
19,O=C(NCc1ccccc1)N[C@H]1CO[C@H]2[C@@H]1OC[C@H]2OC(=O)Nc1cccc2ccccc12,inconclusive: 15%
20,Cc1ccc(S(=O)(=O)n2nc(C)c(Sc3ccccc3)c2C)cc1,inconclusive: 15%
21,CC(C)NC(=O)CNC(=O)Cn1ccc2ccccc2c1=O,inactive
22,O=C(NCCN1CCOCC1)c1cc(-c2ccc(Cl)c(Cl)c2)on1,inactive
23,C#CCN1C(C)=C(C(=O)OC)C(c2cccc([N+](=O)[O-])c2)C(C(=O)OCC)=C1C (configuration not stated),inconclusive: 12%

row,Compound,inhibition
1,CC1=C(C(=O)Nc2ccccn2)C(c2ccc(Cl)cc2)C2=C(CC(C)(C)CC2=O)N1 (configuration not stated),inconclusive: 10%
2,COc1ccc(Cl)cc1NC(=O)c1noc2c1CCCCC2,inconclusive: 19%
3,COc1ccc2cc3cc(C(=O)N4CCN(c5ccccc5)CC4)oc3nc2c1,inconclusive: 13%
4,CC1=C(C(=O)Nc2ccc(C)cc2C)C(c2cccc([N+](=O)[O-])c2)n2ncnc2N1 (configuration not stated),inactive
5,COc1cc(C2C3=C(CCCC3=O)Nc3[nH]c(=O)[nH]c(=O)c32)cc(OC)c1OC (configuration not stated),inactive
6,CC(C)(C)c1nnc(Nc2ccc(Cl)c(Cl)c2)[nH]c1=O,inactive
7,COCCC(=O)N1C[C@@H]2C[C@H](C1)c1ccc(NC(=O)c3ccc(-c4ccccc4)cc3)c(=O)n1C2,inconclusive: 21%
8,CCCC1C(C#N)=C(N)OC2=C1C(=O)CC(C)(C)C2 (configuration not stated),inconclusive: 16%
9,Cc1ccc2nc(-c3ccc(NC(=O)c4cc(=O)c5ccccc5o4)cc3)sc2c1,inconclusive: 25%
10,O=C(CCCn1c(=O)[nH]c2ccsc2c1=O)N1CCN(c2ncccn2)CC1,inconclusive: 11%
11,CC(C)c1noc([C@@H]2C[C@@H](O)CN2Cc2ccc(-c3ccccn3)cc2)n1,inactive
12,Clc1ccccc1CN1CCc2c([nH]c3ccccc23)C1,inactive
13,CCN1CCN(CC(O)COc2ccc(C3CCCCC3)cc2)CC1 (configuration not stated),inconclusive: 15%
14,Cc1ccc(CNC(=O)c2cccn3c(=O)c4c5c(sc4nc23)CCCC5)cc1,inactive
15,Cc1ccc(NC(=O)c2c(C)nc3ccccn23)cc1,inconclusive: 14%
16,O=C(NCCCN1CCCC1=O)c1ccc2c(Cl)c3c(nc2c1)CCCC3,inactive
17,c1ccc(CCC2CN(Cc3ccsc3)CCO2)cc1 (configuration not stated),inconclusive: 18%
18,O=C(c1noc2c1CCCC2)N1CCCCC1,inconclusive: 14%
19,CCOc1ccc(/C=C2\N=C(c3ccccc3)OC2=O)c(OC)c1,inconclusive: 15%
20,Cc1n[nH]c(C)c1S(=O)(=O)N1CCC(C(=O)NC2CCCCCC2)CC1,inactive
21,O=C(NCc1cccs1)c1cc(-c2ccc(Cl)s2)nc2ccccc12,active: 30% and inconclusive: 14%
22,COc1ccc(O)c(C2CC(=O)Nc3c2ccc(N2CCCC2)c3C)c1 (configuration not stated),inconclusive: 15%
23,Cc1c(Cl)cccc1-n1ncnc1-c1cccc([N+](=O)[O-])c1,active: 35%

row,Compound,inhibition
1,Cc1ccc(OCCCN(C)[C@@H]2c3ccccc3C3(CCNCC3)[C@H]2O)cc1,inconclusive: 17%
2,C=CCNC(=O)Nc1nc2c(s1)C[C@]1(C)CC[C@@H]3[C@H](OC(=O)[C@H]3C)[C@H]1[C@@H]2C,active: 34%
3,CCN1C(C(=O)c2ccccc2)=C(Nc2ccccc2C)c2ccccc2S1(=O)=O,active: 31%
4,Cc1cc(/C=C2/C(=O)NC(=O)N(C)C2=O)c(C)n1-c1ccc(Cl)c(Cl)c1,active: 34%
5,COc1ccc(/C=C2/SC(=Nc3cccc(C)c3)NC2=O)cc1,inconclusive: 13%
6,CCc1ccc2c(c1)C1(NN=C(c3ccc(C)cc3)S1)C(=O)N2 (configuration not stated),active: 45%
7,O=C(Nc1ccc2c(c1)OCCO2)c1ccc(NC(=O)C2CCCO2)cc1 (configuration not stated),inconclusive: 12%
8,Cc1c(CCNC(=O)CC2C(=O)NCCN2C)c2ccccc2n1-c1ccccc1 (configuration not stated),inconclusive: 10%
9,CO[C@H]1CN(C(=O)C2CCN(C(=O)c3ccccn3)CC2)CC[C@H]1N,inactive
10,CCOc1ccc(C2CC(c3ccc(C)cc3)n3nc(N)nc3N2)cc1 (configuration not stated),inconclusive: 17%
11,O=C(c1ccccc1)N1CCC(C(=O)N2CCN(Cc3ccccc3)CC2)CC1,inactive
12,COCCNC(=O)C[C@@H]1O[C@H](CNS(=O)(=O)c2ccc(C)cc2)[C@@H](O)[C@H]1O,inconclusive: 15%
13,CC(C)Oc1ccc(C(Nc2ccccn2)c2ccc3cccnc3c2O)cc1 (configuration not stated),inconclusive: 19%
14,O=C(C1CCC1)N1CCOC(Cc2cccc(F)c2)C1 (configuration not stated),inconclusive: 10%
15,CC1c2cccn2CCN1C(=O)CCN1CCCCO1 (configuration not stated),inconclusive: 11%
16,O=C(NCc1ccccn1)Nc1ccc(F)cc1,inconclusive: 16%
17,CC(C)(C)C1CCC2(CC1)SCC(=O)N2c1ccc(Cl)cc1 (configuration not stated),active: 36%
18,COCCN1C(=O)N(Cc2cccnc2)C(=O)C12CCN(C/C(C)=C/c1ccco1)CC2,inconclusive: 28%
19,CCOC(=O)c1c(NC(=O)C2CC2c2ccccc2)sc(C(C)=O)c1C (configuration not stated),inconclusive: 12%
20,O=C(NC1CCCCCCC1)C1c2ccccc2C(=O)N1Cc1ccc(F)cc1 (configuration not stated),inconclusive: 13%
21,O=C(O)CNC(=O)CN1C(=O)c2ccc(C(=O)O)cc2C1=O,inactive
22,O=C(c1cn(CC2CCCO2)nn1)N1CCC(Cc2ccccc2F)CC1 (configuration not stated),inactive
23,O=C(c1ccc2c(c1)CCO2)N1CC(c2ccncc2)C1,inconclusive: 16%
